Data from patent publication US20050075276A1, “Use of inhibitors of glycogen synthase-3 to augment CD28 dependent -T-cell responses” (priority 2003, published 2005).

Tested on: IL-2 transcription
Settings: 100 uM, FIG. 3B

`O=C1NC(=O)C(c2ccccc2[N+](=O)[O-])=C1Nc1ccc(O)c(Cl)c1` [SB415286] was tested, and the “effect on IL-2 gene activation in the context of CD28 co-ligation” value (anti-CD3/CD28 activation) was “preferentially increased the response”, the “effect on anti-CD3 induced gene activation” value (anti-CD3 alone) was “slight effect” and the “effect on anti-CD3 induced gene activation relative to that in the context of anti-CD28 co-ligation” value was ~10 fold lower.
